The structures appear in SMILES notation. The list shows a part of the results. Repeats in this data set agree poorly, so a single value says little.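 The human kidney-derived cells carry a stably integrated construct of eight TEAD-binding elements driving luciferase, read by luminescence in a drug-repurposing library screen. A compound counts as a hit when its signal is more than five robust Z scores above the plate mean.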

The subject of the experiment is HEK293A TEAD-LUC reporter. Description: TEAD-luciferase reporter activity (YAP activation), robust Z score vs plate; higher = stronger YAP/TEAD activation. As to conditions: 24 h.

In the case of `Cc1cccc(C)c1N(CC(=O)Nc1ccc(-c2ncon2)cc1)C(=O)C1CCS(=O)(=O)CC1`, the TEAD-luciferase reporter activity is, setting by setting: (compound concentration: 200 nM) inactive: -1.68; (compound concentration: 2 uM) inactive: 1.15; (compound concentration: 10 uM) inactive: 1.08.
In the same order, the values of `NS(=O)(=O)OC[C@H]1C[C@@H](Nc2ccnc3cc(-c4cccc(SC(F)(F)F)c4)nn23)[C@H](O)[C@@H]1O` are inactive: -3.02, inactive: -3.46 and inactive: -3.83.
In the same order, the values of `CC(=O)OCC1=C(C(=O)O)N2C(=O)[C@@H](NC(=O)CSc3ccncc3)[C@H]2SC1` are inactive: -1.11, inactive: -0.509 and inactive: 0.0785.
In the same order, the values of `C=C(C)C1CCC2(C(=O)NCCc3cccc(C(=O)NCc4ccc(C(=O)NCCc5cnc[nH]5)cn4)c3)CCC3(C)C(CCC4C5(C)CCC(O)C(C)(C)C5CCC43C)C12` (centres undefined) are inactive: 4.5, inactive: -0.0357 and inactive: 3.51.
As to `COc1ccccc1NC(=O)CCN1CCN(C(c2ccc(F)cc2)c2ccc(F)cc2)CC1`, the TEAD-luciferase reporter activity reads like this: (compound concentration: 200 nM) inactive: -1.03; (compound concentration: 2 uM) inactive: -0.212; (compound concentration: 10 uM) inactive: -0.402.
For the compound `C[C@H]1CC[C@H](n2c3cnccc3c3cnc(Nc4ccc5c(n4)CCN(C(=O)CO)C5)nc32)CC1`, the TEAD-luciferase reporter activity by setting is: (compound concentration: 200 nM) inactive: -1.09; (compound concentration: 2 uM) inactive: -2.02; (compound concentration: 10 uM) inactive: 1.63.
With `Oc1cccc2cc3cccc(O)c3c(O)c12` [dithranol, Bioglan], the TEAD-luciferase reporter activity (compound concentration: 200 nM) was inactive: -0.611 and the TEAD-luciferase reporter activity (compound concentration: 10 uM) was inactive: -1.15.
As to `Oc1cccc2cc3cccc(O)c3c(O)c12` [dithranol], the TEAD-luciferase reporter activity (compound concentration: 2 uM) was inactive: -1.42.
For `CO[C@H]1C[C@@H]2CC[C@@H](C)[C@@](O)(O2)C(=O)C(=O)N2CCCC[C@H]2C(=O)O[C@H]([C@H](C)C[C@@H]2CC[C@@H](OC(=O)C(C)(CO)CO)[C@H](OC)C2)CC(=O)[C@H](C)/C=C(\C)[C@@H](O)[C@@H](OC)C(=O)[C@H](C)C[C@H](C)\C=C/C=C/C=C/1C` [Temsirolimus], the TEAD-luciferase reporter activity is, setting by setting: (compound concentration: 200 nM) inactive: -0.951; (compound concentration: 2 uM) inactive: -0.852; (compound concentration: 10 uM) inactive: 3.33.
As to `Nc1nc(N)c2nc(-c3ccccc3)c(N)nc2n1` [triamterene], the TEAD-luciferase reporter activity (compound concentration: 2 uM) is inactive: 1.21.
Regarding `Nc1nc(N)c2nc(-c3ccccc3)c(N)nc2n1` [Triamterene396-01-0], the TEAD-luciferase reporter activity reads like this: (compound concentration: 200 nM) inactive: -1.08; (compound concentration: 10 uM) inactive: -1.01.
For the compound `Clc1cccc(Nc2ccncc2)c1`, the TEAD-luciferase reporter activity runs as follows: (compound concentration: 200 nM) inactive: -0.0845; (compound concentration: 2 uM) inactive: -0.652; (compound concentration: 10 uM) inactive: 2.71.
On to `CC(C)(Sc1ccncc1-c1ccc(C#N)c2ccccc12)C(=O)O`, for which the TEAD-luciferase reporter activity was inactive: 0.338 (compound concentration: 200 nM), inactive: -0.92 (compound concentration: 2 uM) and inactive: 1.37 (compound concentration: 10 uM).
For `CCCc1c2nc(-c3cc(S(=O)(=O)N4CCN(C)CC4)ccc3OCC)[nH]c(=O)c2nn1C` [iso-Sildenafil], the TEAD-luciferase reporter activity (compound concentration: 2 uM) is active: 5.28.
Take `CCCc1c2nc(-c3cc(S(=O)(=O)N4CCN(C)CC4)ccc3OCC)[nH]c(=O)c2nn1C`: the TEAD-luciferase reporter activity (compound concentration: 200 nM) was inactive: -0.189 and the TEAD-luciferase reporter activity (compound concentration: 10 uM) is inactive: 1.11.
`CC(C)c1cc(Oc2c(Cl)cc(-n3nc(C#N)c(=O)[nH]c3=O)cc2Cl)n[nH]c1=O`: the TEAD-luciferase reporter activity was inactive: -0.774 (compound concentration: 200 nM), inactive: -0.654 (compound concentration: 2 uM) and inactive: -0.146 (compound concentration: 10 uM).
For the compound `Nc1nc(=O)n([C@@H]2CS[C@H](CO)O2)cc1F` [Emtricitabine], the TEAD-luciferase reporter activity was inactive: -0.681 (compound concentration: 200 nM) and inactive: 0.566 (compound concentration: 10 uM).
Regarding `O=C(O)c1ccc(NC(=O)C(CC2CCCC2)n2cnc(C(F)(F)F)c2)nc1` (centres undefined), the TEAD-luciferase reporter activity was inactive: -0.205 (compound concentration: 200 nM), inactive: -0.544 (compound concentration: 2 uM) and inactive: 1.27 (compound concentration: 10 uM).
As to `Cc1ccc(S(=O)(=O)NC(=O)NN2CCCCCC2)cc1`, the TEAD-luciferase reporter activity was inactive: 0.943 (compound concentration: 200 nM) and inactive: -2.16 (compound concentration: 10 uM).
Turning to `Cc1ccc(S(=O)(=O)NC(=O)NN2CCCCCC2)cc1` [Tolazamide], under “compound concentration: 2 uM”, the TEAD-luciferase reporter activity was inactive: -0.694.
On to `CC1(C)OC(=O)C(Oc2ccc(Br)cn2)=C1c1ccc(S(C)(=O)=O)cc1`, for which the TEAD-luciferase reporter activity was inactive: -1 (compound concentration: 200 nM), inactive: -0.0126 (compound concentration: 2 uM) and inactive: -1.01 (compound concentration: 10 uM).
In the same order, the values of `COc1cccc(CCc2ccccc2OCC[C@@H]2C[C@@H](O)CN2C)c1` are inactive: -0.975, inactive: -0.101 and inactive: 2.66.
Turning to `COc1ccc(CC(=O)N2Cc3ccccc3CC3(CCN(C)CC3)C2)cc1`, the TEAD-luciferase reporter activity is inactive: 1.38 (compound concentration: 200 nM) and inactive: -0.261 (compound concentration: 10 uM).
As to `O=C(c1cnc(Nc2cccc(Cl)c2)nc1C(F)(F)F)N1CCC1`, the TEAD-luciferase reporter activity (compound concentration: 200 nM) is inactive: -1.35, the TEAD-luciferase reporter activity (compound concentration: 2 uM) is inactive: 0.784 and the TEAD-luciferase reporter activity (compound concentration: 10 uM) is inactive: -0.534.
Regarding `CC(=O)N[C@H]1[C@H]([C@H](O)[C@H](O)CO)OC(C(=O)O)=C[C@@H]1NC(=N)N` [zanamivir], the TEAD-luciferase reporter activity is inactive: -1.03 (compound concentration: 200 nM), inactive: 3.55 (compound concentration: 2 uM) and inactive: 4.1 (compound concentration: 10 uM).
In the same order, the values of `CN(C)CC(O)COc1ccc(-c2nc3c(N)nc(N)nc3nc2N)cc1` (centres undefined) are inactive: -0.3, inactive: 0.165 and inactive: 1.47.

The record behind these values is the supplement of paper PMC10735217.
